Results reported in article PMC11027413.
Like-named read-outs stand apart in the source and are kept apart here. Results are given in words; binding and its absence hold for the method and conditions named. In cells and extracts the contact can be indirect. Some results given as binding are weak or reduced against the parent protein; the word gives no strength. For some assays here: Where a sequence is shown, tags or fusion partners need not be part of it.

Sequences of proteins named here, by UniProt entry; tags and fusion partners are left off. A change or cut given only in a name is not applied to a line headed by its entry.
UniProt P50750: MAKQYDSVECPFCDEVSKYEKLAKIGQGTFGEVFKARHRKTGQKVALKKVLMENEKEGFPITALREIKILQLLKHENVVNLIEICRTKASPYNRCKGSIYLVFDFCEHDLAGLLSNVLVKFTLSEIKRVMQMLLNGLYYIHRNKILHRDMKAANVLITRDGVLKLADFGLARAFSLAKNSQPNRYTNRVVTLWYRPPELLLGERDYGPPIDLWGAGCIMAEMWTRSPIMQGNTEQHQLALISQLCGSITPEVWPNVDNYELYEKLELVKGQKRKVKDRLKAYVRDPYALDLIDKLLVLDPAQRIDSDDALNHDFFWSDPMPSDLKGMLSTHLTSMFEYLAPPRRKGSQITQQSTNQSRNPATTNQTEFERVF
UniProt O60563: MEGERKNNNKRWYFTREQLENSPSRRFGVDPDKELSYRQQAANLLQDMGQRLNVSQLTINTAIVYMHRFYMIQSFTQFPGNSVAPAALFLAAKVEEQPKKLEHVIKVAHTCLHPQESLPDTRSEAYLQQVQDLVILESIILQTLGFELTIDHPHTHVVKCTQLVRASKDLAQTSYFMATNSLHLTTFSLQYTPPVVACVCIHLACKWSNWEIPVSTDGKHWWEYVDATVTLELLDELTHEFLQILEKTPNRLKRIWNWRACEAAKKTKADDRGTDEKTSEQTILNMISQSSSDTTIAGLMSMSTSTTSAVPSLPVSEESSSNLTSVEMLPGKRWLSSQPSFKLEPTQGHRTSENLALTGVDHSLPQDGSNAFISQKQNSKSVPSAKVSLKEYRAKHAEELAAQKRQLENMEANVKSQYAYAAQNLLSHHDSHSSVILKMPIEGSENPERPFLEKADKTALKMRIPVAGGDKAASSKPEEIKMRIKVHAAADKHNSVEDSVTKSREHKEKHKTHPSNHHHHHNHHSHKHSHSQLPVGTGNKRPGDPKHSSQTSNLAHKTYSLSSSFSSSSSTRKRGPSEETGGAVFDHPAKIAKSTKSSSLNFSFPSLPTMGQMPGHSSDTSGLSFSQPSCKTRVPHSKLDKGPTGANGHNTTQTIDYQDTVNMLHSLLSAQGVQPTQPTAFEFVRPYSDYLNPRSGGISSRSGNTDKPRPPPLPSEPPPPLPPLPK
UniProt O94992: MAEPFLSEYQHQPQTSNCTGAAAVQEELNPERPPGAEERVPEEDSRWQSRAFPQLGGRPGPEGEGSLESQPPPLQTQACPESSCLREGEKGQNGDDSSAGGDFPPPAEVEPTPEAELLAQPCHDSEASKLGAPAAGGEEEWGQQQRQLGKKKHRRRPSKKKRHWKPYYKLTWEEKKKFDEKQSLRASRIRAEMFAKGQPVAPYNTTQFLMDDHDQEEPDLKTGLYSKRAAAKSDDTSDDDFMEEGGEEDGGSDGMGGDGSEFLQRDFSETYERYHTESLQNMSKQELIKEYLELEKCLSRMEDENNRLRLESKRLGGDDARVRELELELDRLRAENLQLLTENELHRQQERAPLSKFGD
UniProt Q7L2J0: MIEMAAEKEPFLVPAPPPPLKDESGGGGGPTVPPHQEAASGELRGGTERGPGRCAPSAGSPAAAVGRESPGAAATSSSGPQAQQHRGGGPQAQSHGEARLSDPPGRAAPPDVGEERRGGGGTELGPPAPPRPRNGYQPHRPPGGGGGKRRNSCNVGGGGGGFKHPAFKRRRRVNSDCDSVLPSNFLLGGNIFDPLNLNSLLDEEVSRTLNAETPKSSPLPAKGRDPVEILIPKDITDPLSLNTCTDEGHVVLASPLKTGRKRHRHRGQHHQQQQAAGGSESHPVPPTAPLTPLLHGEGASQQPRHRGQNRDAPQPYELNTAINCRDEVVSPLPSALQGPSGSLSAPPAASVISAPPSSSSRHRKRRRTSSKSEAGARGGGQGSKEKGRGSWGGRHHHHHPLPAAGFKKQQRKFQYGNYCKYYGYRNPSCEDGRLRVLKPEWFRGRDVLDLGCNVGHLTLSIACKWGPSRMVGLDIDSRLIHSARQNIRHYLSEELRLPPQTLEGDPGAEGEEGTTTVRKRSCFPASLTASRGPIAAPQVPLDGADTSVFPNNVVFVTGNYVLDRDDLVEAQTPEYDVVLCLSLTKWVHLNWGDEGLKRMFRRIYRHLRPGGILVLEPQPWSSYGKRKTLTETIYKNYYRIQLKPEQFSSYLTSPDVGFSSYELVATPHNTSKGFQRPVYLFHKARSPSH

What was measured:
[1] = target: T1, FLAG-HRV-tagged RBM22 (human) (UniProt Q9NW64); assay: co-IP; FLAG immunoprecipitation of FLAG-RBM22 from benzonase-treated lysate of the HepG2 FLAG-RBM22 line; Western blot of endogenous partners (Fig. 5c, 5j)
T1 sequence: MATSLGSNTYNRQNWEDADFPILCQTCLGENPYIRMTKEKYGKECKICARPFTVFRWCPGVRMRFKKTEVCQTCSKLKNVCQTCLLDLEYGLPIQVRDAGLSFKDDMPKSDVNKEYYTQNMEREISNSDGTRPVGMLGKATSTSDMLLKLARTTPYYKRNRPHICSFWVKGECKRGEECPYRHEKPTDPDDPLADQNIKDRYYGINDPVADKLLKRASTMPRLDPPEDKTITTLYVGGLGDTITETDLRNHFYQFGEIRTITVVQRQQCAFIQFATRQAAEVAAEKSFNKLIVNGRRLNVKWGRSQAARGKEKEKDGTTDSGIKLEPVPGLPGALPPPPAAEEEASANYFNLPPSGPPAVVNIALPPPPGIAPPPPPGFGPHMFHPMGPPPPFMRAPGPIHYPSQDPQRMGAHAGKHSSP

[2] = target: CDK9 (human (endogenous in HepG2)) (UniProt P50750); assay: co-IP; endogenous proteins in mAID-RBM22 HepG2 cells treated with DMSO or 5-Ph-IAA (acute depletion of RBM22); Western blot
[3] = target: 7SK-P-TEFb complex (human (endogenous in HepG2)) (UniProt P50750+O60563+O94992+Q4G0J3+Q7L2J0); assay: co-sedimentation; HepG2 cell lysate on a 10-40% glycerol gradient in NP-40 lysis buffer (50 mM HEPES pH 7.5, 100 mM NaCl), 50,000 rpm for 11 h at 4°C; fractions detected by Western blotting
[4] = target: CDK9 (human (endogenous in HepG2)) (UniProt P50750); assay: co-IP; reciprocal co-IP of endogenous proteins in wild-type HepG2 cells (Fig. 5k); which partner was precipitated is not told
[5] = target: T2, LARP7 (human (endogenous in HepG2)) (UniProt Q4G0J3); assay: as above
T2 sequence: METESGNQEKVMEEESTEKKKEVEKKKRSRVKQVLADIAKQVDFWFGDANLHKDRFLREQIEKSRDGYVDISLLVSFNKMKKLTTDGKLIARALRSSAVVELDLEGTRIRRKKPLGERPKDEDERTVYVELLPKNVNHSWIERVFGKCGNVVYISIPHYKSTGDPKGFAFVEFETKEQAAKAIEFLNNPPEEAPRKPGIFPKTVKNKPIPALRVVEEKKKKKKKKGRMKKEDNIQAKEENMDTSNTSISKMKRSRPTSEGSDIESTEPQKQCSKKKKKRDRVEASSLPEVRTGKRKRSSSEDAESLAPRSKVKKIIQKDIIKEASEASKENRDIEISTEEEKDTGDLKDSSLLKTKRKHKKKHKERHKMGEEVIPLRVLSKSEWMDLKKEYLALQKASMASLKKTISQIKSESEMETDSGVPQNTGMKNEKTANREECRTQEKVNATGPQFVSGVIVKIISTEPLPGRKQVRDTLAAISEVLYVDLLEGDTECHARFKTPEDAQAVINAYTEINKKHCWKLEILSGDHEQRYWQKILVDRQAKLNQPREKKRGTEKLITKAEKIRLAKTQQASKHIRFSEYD

[6] = target: HEXIM1 (human (endogenous in HepG2)) (UniProt O94992); assay: as above
[7] = target: T1, FLAG-HRV-tagged RBM22 (human); assay: co-IP; FLAG immunoprecipitation of FLAG-RBM22 from benzonase-treated lysate of the HepG2 FLAG-RBM22 line; Western blot of endogenous partners (Fig. 5c, 5j); remark: listed apart in the source

Molecule: CDK9 (from UniProt P50750 1-372) (enzyme)
- binding [1]: binds

Molecule: HEXIM1 (from UniProt O94992 1-359)
- binding [2]: binds
- binding [1]: binds

Molecule: RBM22 (endogenous) (from UniProt Q9NW64 1-420)
- binding [3]: binds
- binding [4]: binds
- binding [5]: binds
- binding [6]: binds

B1: LARP7 (protein, UniProt Q4G0J3 1-582)
chain: T2 sequence
- binding [7]: binds
